Article PMC4770246
Results are given in words; binding and its absence hold for the method and conditions named.

The chains behind the UniProt entries cited, without tags or fusion partners.
UniProt Q1LZ83: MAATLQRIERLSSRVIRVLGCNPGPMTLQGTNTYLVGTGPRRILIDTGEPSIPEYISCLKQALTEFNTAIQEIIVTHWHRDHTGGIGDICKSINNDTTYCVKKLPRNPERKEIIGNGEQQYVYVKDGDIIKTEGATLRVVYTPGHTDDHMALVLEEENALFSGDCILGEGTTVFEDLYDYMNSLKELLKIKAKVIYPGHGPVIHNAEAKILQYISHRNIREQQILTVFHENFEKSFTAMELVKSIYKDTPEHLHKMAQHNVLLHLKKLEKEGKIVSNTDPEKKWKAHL

Target: Endogenous bovine LACTB2 in mitochondrial matrix extract from bovine liver (bovine (endogenous in bovine liver)) (UniProt Q1LZ83)
Test: SEC; soluble proteins of bovine liver mitochondrial matrix fractionated on Superdex 200; LACTB2 detected in fractions by immunoblot; size markers 669, 232, 67, 35 and 13 kDa

Endogenous bovine LACTB2 in mitochondrial matrix extract from bovine liver (from UniProt Q1LZ83 1-288) (enzyme)
binding: no binding
